Measured values published in the supplement of paper PMC12889115.
The other results are listed elsewhere or left out. Values are raw readings; no control value is given beside them.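 First-pass screen: polymyxin B was added at a level that permeabilizes the Salmonella outer membrane while sparing the inner membrane. DMSO wells, with and without polymyxin B, defined maximum growth. Because plates differed from one another, each plate's data were ranked separately and the compounds with the lowest OD600 were carried forward as hits.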

System: Salmonella enterica serovar Typhimurium SL1344
Assay: bacterial growth OD600 after 18 h with compound and polymyxin B; higher = more bacterial growth (less inhibition)
Details: 50 µM, Mueller-Hinton broth

Row | Compound | bacterial growth OD600 (polymyxin B 1 µg/mL) | bacterial growth OD600 (polymyxin B 0.75 µg/mL)
1 | COc1ccc(-c2nn(-c3ccccc3C)cc2CN2CCC(C(N)=O)CC2)cc1F | 0.937 | 
2 | COc1ccc(-c2cc(C)cc3c2OC(CNC(=O)CC2CCCCC2)C3)nn1 (stereo unspecified) |  | 0.655
3 | COc1ccc(C)cc1S(=O)(=O)N1CCC(CO)(Cc2cccc(C(F)(F)F)c2)CC1 | 0 | 
4 | O=C(Cn1cncn1)N1CCC(C2CCN(Cc3cccc(F)c3F)CC2)C1 (stereo unspecified) |  | 0.846
5 | CO[C@H]1[C@H](NC(=O)Cc2cccs2)c2ccccc2C12CCN(Cc1ccccc1C)CC2 |  | 0.77
6 | CC(C)CC(=O)Nc1ccnn1C1CCN(C(=O)c2ccccc2F)CC1 | 0.861 | 
7 | O=C(NC1CC1)C1CCCN(C2CCN(C(=O)CC3CCCC3)CC2)C1 (stereo unspecified) |  | 0.813
8 | COc1cc(C)ccc1OCc1nc(C(=O)N2CCCO2)co1 | 0.855 | 
9 | COc1cc(CNC2COc3ccccc3C2)cc(OC)c1O (stereo unspecified) |  | 0.824
10 | O=C(Cc1c[nH]c2ccccc12)N1CCCC(CO)(CCOc2ccccc2)C1 (stereo unspecified) |  | 0.785
11 | CCC(=O)N1CCCC(C(=O)Nc2cccc(-c3cc4ccccc4[nH]3)c2)C1 (stereo unspecified) | 0.801 | 
12 | CCc1ccc(CN(C)C(=O)c2cc(Cn3ccc4ccccc43)[nH]n2)nc1 |  | 0.005
13 | COCc1ccc(C(=O)Nc2ccc(-c3nc(CNC(=O)C(=O)CC(C)C)c(C)o3)cc2)o1 |  | 0.396
14 | O=C(c1ccc(Oc2ccccc2)cc1)C1CCCN(C(=O)CN2C(=O)CSC2=O)C1 (stereo unspecified) | 0.004 | 
15 | O=C(Nc1ccc(Oc2ccccc2)nc1)C1CCN(Cc2ccsc2)CC1 | 0.86 | 
16 | NC(=O)c1ccc(-c2ccc(F)c3c2OC(CNC(=O)CN2CC(c4ccccc4)CC2=O)C3)cc1 (stereo unspecified) |  | 0.775

Rewritten tab-delimited: part of the list above
Row	Compound	bacterial growth OD600 (polymyxin B 1 µg/mL)	bacterial growth OD600 (polymyxin B 0.75 µg/mL)
7	O=C(NC1CC1)C1CCCN(C2CCN(C(=O)CC3CCCC3)CC2)C1 (stereo unspecified)		0.813
8	COc1cc(C)ccc1OCc1nc(C(=O)N2CCCO2)co1	0.855	

The list goes on:

Row | Compound | bacterial growth OD600 (polymyxin B 1 µg/mL) | bacterial growth OD600 (polymyxin B 0.75 µg/mL)
17 | Cc1ncc2c(c1CNC(=O)CN1CCCCC1)CCN(C(=O)c1ccc(-c3ccccc3)cc1)C2 |  | 0.791
18 | COc1cccc(O)c1CN1Cc2cc(Cl)ccc2OC(C)C1 (stereo unspecified) |  | 0.117
19 | CCN(CC)CCNC(=O)c1coc(CN2CCN(c3ccccc3F)CC2)n1 | 1.2 | 
20 | CCc1ccc(CN2CCC(Oc3cc(OC)ccc3C(=O)NCCOC)CC2)cc1 | 1.26 | 
21 | CCn1ccnc1CN1CCC(Oc2ccc(C(=O)NCCOC)cc2Cl)CC1 | 0.829 | 
22 | COc1cccc(CCC(=O)N2CCC(n3nccc3NC(=O)C3CCOC3)CC2)c1 (stereo unspecified) | 0.987 | 
23 | O=C1CCCN1CCC(=O)N1CCCC(CCc2ccc(F)c(F)c2)C1 (stereo unspecified) |  | 0.809
24 | O=C(CN1C(=O)c2ccccc2C1=O)NC1CCCc2c1cnn2-c1ccccc1F (stereo unspecified) | 1.04 | 
25 | CC(=O)c1cc(C(=O)NCc2nc(-c3cccc(NC(=O)C4CCCN(C)C4)c3)oc2C)cs1 (stereo unspecified) |  | 0.861
26 | CC(=O)N1CCC(Oc2ccc(Cl)cc2C(=O)NCc2ccc(C)s2)CC1 | 0.933 | 
27 | CCN(CC)C1CCN(C(=O)c2cn(C3CC3)cc(C(=O)NCC3CCCCC3)c2=O)C1 (stereo unspecified) |  | 0.741
28 | COc1ccc(C(CC(=O)N(C)Cc2c(C)nn(C)c2C)c2ccccc2)cc1 (stereo unspecified) | 0.801 | 
29 | Cc1ccccc1C(=O)NC1CC(C)(C)Cc2nc(N3CCOCC3)ncc21 (stereo unspecified) |  | 0.754
30 | O=S(=O)(Cc1ccccc1)NCC1CCCN(Cc2cccc3cccnc23)C1 (stereo unspecified) |  | 0.777
31 | O=C1N(Cc2ccc(F)c(F)c2)CCCC1(O)CNC1(c2ccccc2)CC1 (stereo unspecified) | 0.833 | 
